PubChem BioAssay AID1053208, Peter MacCallum Cancer Centre, 2014
Shown is one part, drawn at random, of about 17,000 reagents tested. In the full data, 788 (4.7%) were called active. 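Calls rest on z-score classes alone; an extra cut-off of viability at most 70% of control was not applied to them.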 A number with no mark means an inactive call. Not all columns of the deposit are shown.

Screen: 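Synthetic lethal interactions between gene loss and doxorubicin in osteosarcoma cells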 (primary screen)
Cells: mouse osteosarcoma cells, early-passage culture from an engineered mouse model of fibroblastic bone tumour
Reagent: siRNA pool against mouse genes, 40 nM
Timing: about 120 h (48 h before drug, then 72 h with drug)
Conditions: doxorubicin 100 nM for 72 h, roughly 30-40% inhibitory dose
Measured: 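Luminescent ATP signal taken as viability with or without 100 nM doxorubicin for 72 h; mean of two wells set against non-targeting siRNA and turned into robust z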
Scale: viability z-score with doxorubicin: higher = more viable cells under doxorubicin; viability z-score without drug: higher = more viable cells with knock-down alone; z-score of drug to no-drug ratio: higher = less drug sensitisation by knock-down
Call rule: 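a pool counts as active when its viability z-score with doxorubicin is -2 or below and its z-score without drug lies between -2 and 2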

gene	combined z-score class	viability z-score with doxorubicin	viability z-score without drug	z-score of drug to no-drug ratio
Tnfsf10 (GeneID 22035)	no change with or without drug	0.56	0.34	0.45
1700084P21Rik (GeneID 73498)	no change with or without drug	1.12	1.85	0
Vmn1r171 (GeneID 81012)	no change with or without drug	-0.67	0.51	-0.9
Slc6a11 (GeneID 243616)	no change with or without drug	1.01	0.51	0.79
Ddx11 (GeneID 320209)	no change with or without drug	0.9	-0.51	1.46
Mlph (GeneID 171531)	no change with or without drug	-1.24	-1.52	-0.11
Myo15a (GeneID 17910)	no change with or without drug	1.01	1.35	0.22
Ddx59 (GeneID 67997)	high cell count with doxorubicin only	2.02	0.51	1.8
Btnl9 (GeneID 237754)	no change with or without drug	-1.24	0.51	-1.46
Ldb3 (GeneID 24131)	no change with or without drug	1.12	0.51	0.9
Mul1 (GeneID 68350)	no change with or without drug	1.91	-0.34	2.36
Zfp160 (GeneID 224585)	no change with or without drug	-0.22	-0.17	0
Chac1 (GeneID 69065)	high cell count without drug only	-0.67	3.04	-2.25
Pycr1 (GeneID 209027)	no change with or without drug	-1.12	-0.17	-1.01
Cstl1 (GeneID 228756)	no change with or without drug	0	0.51	-0.22
Bub1 (GeneID 12235)	no change with or without drug	-0.45	0	-0.34
Cog3 (GeneID 338337)	high cell count without drug only	1.69	2.53	0.11
Tatdn1 (GeneID 69694)	no change with or without drug	0.67	-0.67	1.35
Slc6a4 (GeneID 15567)	no change with or without drug	1.8	1.69	0.79
Slc12a6 (GeneID 107723)	no change with or without drug	-0.67	-1.52	0.45
Aarsd1 (GeneID 69684)	no change with or without drug	-0.9	0.84	-1.35
Tmem39a (GeneID 67846)	low cell count with doxorubicin only (active)	-2.02	-0.17	-1.91

5 neighbouring entries already listed, for reference:
gene	combined z-score class	viability z-score with doxorubicin	viability z-score without drug	z-score of drug to no-drug ratio
Ddx59 (GeneID 67997)	high cell count with doxorubicin only	2.02	0.51	1.8
Btnl9 (GeneID 237754)	no change with or without drug	-1.24	0.51	-1.46
Ldb3 (GeneID 24131)	no change with or without drug	1.12	0.51	0.9
Mul1 (GeneID 68350)	no change with or without drug	1.91	-0.34	2.36
Zfp160 (GeneID 224585)	no change with or without drug	-0.22	-0.17	0

Additional results follow.
gene	combined z-score class	viability z-score with doxorubicin	viability z-score without drug	z-score of drug to no-drug ratio
Ift43 (GeneID 76411)	no change with or without drug	1.24	-0.84	2.14
Or9k7 (GeneID 258297)	no change with or without drug	-0.45	-0.17	-0.22
Cfb (GeneID 14962)	no change with or without drug	1.46	1.85	0.34
Ripk1 (GeneID 19766)	high cell count without drug only	-1.57	2.19	-2.7
Pcnt (GeneID 18541)	no change with or without drug	-1.24	-0.84	-0.67
Tlr1 (GeneID 21897)	no change with or without drug	0.22	1.01	-0.34
Dhrs9 (GeneID 241452)	high cell count with doxorubicin only	2.25	0.34	2.25
Ifng (GeneID 15978)	no change with or without drug	-1.35	-1.69	-0.22
Ppm1l (GeneID 242083)	no change with or without drug	0.79	-0.34	1.24
Steap1 (GeneID 70358)	high cell count with and without drug	2.36	2.87	0.56
Birc3 (GeneID 11796)	no change with or without drug	-1.35	0.51	-1.57
D930030O05Rik (GeneID 320387)	no change with or without drug	-0.9	-0.17	-0.79
